Measurements: PubChem BioAssay AID1347426 (Functional Genomics Laboratory (NCATS/FGL), 2020)
The whole screen tested about 31,000 sequences, of which about 1,400 (4.5%) were called active.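 The calls were made as follows: active = median seed-adjusted z-score above 1 or below -1; inactive = the rest.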 This is one part of the list.

Experiment: Novel Modifiers of Survival Motor Neuron (SMN) Protein: Gene Identification via Genome-wide siRNA Screen;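 also: luminescence tracks full-length SMN protein made from the SMN2 reporter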
Details: HEK293T SMN2-luciferase reporter, siRNA knockdown, 72 h; actives lie on both sides
In short: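 Each of three siRNAs per gene is reverse-transfected (1 pmol) into reporter HEK293T cells whose luciferase output tracks SMN protein level. After 72 h culture, ONE-Glo luminescence is control-normalized, log10-transformed and MAD-standardized; Common Seed Analysis deprioritizes seed-driven hits.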

Row | Sequence | median seed-adjusted z-score
1 | CCAUCACCUUCAAUCCGCUTT against PEMT | inactive: 0.0218
2 | CCAGAUCAGUCCUAGCUUATT against GLIS3 | inactive: -0.00906
3 | CCGUUGAGCUGCAUACUAATT against CA3 | inactive: -0.276
4 | CCUUAACAUUUGUAGACUUTT against ZNF765 | inactive: 0.541
5 | GGAGGUUCAGAAGCACCUATT against PACSIN2 | inactive: 0.73
6 | CAAGGAGUAUGAGUACUCATT against IL12B | inactive: 0.409
7 | GCCUAUUCCUUCAAGUAUUTT against SUPT6H | active: -2.54
8 | GCUCCAGUCUUGUUAAACATT against ZNF773 | inactive: 0.345
9 | GGCACAUCAUCUACAUAGATT against MMEL1 | inactive: 0.325
10 | CAGUGGAUAUCAAGCUUAATT against OPA1 | inactive: -0.182
11 | GCCUAUCAGUGGAGUGUUATT against PLAA | inactive: -0.192
12 | GAUCAGGUGUAAAUAGUGATT against DEK | inactive: 0.374
13 | UUUUGUUCAUAUAACGUCATT against IFNA1 | inactive: -0.625
14 | GAACUCUUUCAAGAUCUAATT against ETV1 | inactive: 0.167
15 | GCAAGGCAAUGCAAACGAATT against DDX43 | inactive: -0.452
16 | GCGCAAAGCUGAUUCUGAUTT against CBX1 | inactive: 0
17 | GGCUCCAGAUCAUGAAGUATT against ZNF48 | inactive: -0.116
18 | CCGAGAAGCUUCUAUUUCATT against DGKI | inactive: -0.417
19 | UGAGCUACAUGGUAUAUUUTT against ADORA2B | inactive: -0.471
20 | GGAUCGCCCUGUAUGCUGUTT against LRTM2 | inactive: 0.465
21 | AGUGCUACCUGAUCUCCGATT against DMRTB1 | inactive: -0.393
22 | GAGGUACUCUAUCAACGUATT against LRP1B | inactive: -0.0589
23 | GAAAAACGGUGAGUACCUUTT against ADAMTS5 | inactive: -0.306
24 | GCAAUAUUGCUACUUCGCUTT against HSD17B7 | inactive: 0.0836
25 | CGAGUAUAAUGACGUGGUATT against PRSS16 | inactive: -0.0226
26 | GGCUGAGAGAGUCUACUUUTT against RPIA | inactive: 0.0803
27 | ACAUCAUAGUUGUAGGACATT against IRF2 | inactive: 0.367

2 entries drawn at random from those above:
Row | Sequence | median seed-adjusted z-score
12 | GAUCAGGUGUAAAUAGUGATT against DEK | inactive: 0.374
14 | GAACUCUUUCAAGAUCUAATT against ETV1 | inactive: 0.167

A second format for some results above.
Row,Sequence,median seed-adjusted z-score
7,GCCUAUUCCUUCAAGUAUUTT against SUPT6H,active: -2.54
8,GCUCCAGUCUUGUUAAACATT against ZNF773,inactive: 0.345

(further entries)

Row | Sequence | median seed-adjusted z-score
28 | GAACGGCCCGGAUCAUUGATT against SEPHS2 | inactive: -0.392
29 | AGACCUUUGUCAUCCCACUTT against PKN3 | inactive: 0.476
30 | CCACGAUGUGGGAUAAUAATT against GALNAC4S-6ST | inactive: 0.218
31 | GUAUCGCAGUUCUUCGAAUTT against ALX1 | inactive: -0.556
32 | CGCCUGGUCUAUGAACUUUTT against SCARF1 | inactive: -0.324
33 | GCGUGGAAGUGAAGCACCATT against CD5L | inactive: 0
34 | CUCUCUAUAUUGAAACCAATT against CHN1 | inactive: 2.1e-05
35 | GGCACGUUCUGGAAACAUATT against GMPS | inactive: -0.485
36 | CGAAUGAAACCAUACAUAUTT against MAS1L | inactive: 0.0585
37 | GGUCGAAACAUUACUAUCATT against XPO4 | inactive: 0.616
38 | CGAGAAUGUCUGGUCUGUATT against FHL3 | inactive: 0.105
39 | GAGUUUUAGUCGCAAUAUATT against SYT14L | inactive: 0.2
40 | GAUGUUGAGUUGAUUGAUATT against CARD8 | inactive: 0.115
41 | UUAUAUAGCUUGAAACAUATT against CRH | inactive: 0.64
42 | GACCAGCUGCGCAAUGUUATT against ATOH1 | inactive: -0.374
43 | AGAGCACAUCAAAUCAGAATT against PAX2 | inactive: 0.341
44 | GGAAGAACGCAGUCGUGAATT against TRIP10 | inactive: -0.261
45 | GCAUCUCUAGAUCCCAUUATT against HLX | inactive: 0.379
46 | AGCCGACAGUCCAUAAGAATT against EPS8L2 | inactive: -0.497
47 | UGCUGGUGGUUGAGCCUGATT against ESRRA | inactive: -0.833
48 | CCAAGGACGGCUGGGUUUATT against WWOX | inactive: -0.583
49 | GGAAUACAGUGACGACAAATT against ING5 | inactive: -0.193
50 | GACUGUUACCAUAUCCCAATT against SH3KBP1 | inactive: -0.34
51 | CCAGUUUGUUUACAUGAGATT against SLC13A5 | inactive: 0
52 | CAACAGUACCAAACACGAUTT against PIAS1 | inactive: -0.0367
53 | GAGGUUAUGAUGUGGAAAATT against HBEGF | inactive: -0.903
54 | CGUUGCUAGUGCUCACUUATT against FRAG1 | inactive: -0.554
